This is an account of results in PubChem BioAssay AID2685 (National Center for Advancing Translational Sciences (NCATS), 2010).

The structures appear in SMILES notation. Some of the results follow. Further columns of the screen follow, without active or inactive calls. The list favours compounds with an active or inconclusive main result. Potencies come from curve fits of mixed quality, noted in brackets.

This assay can be described thus: qHTS Assay for Lipid Storage Modulators in Drosophila S3 Cells.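 For cell number change: cells counted by Cell Tracker Red CMTPX staining in the red channel.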 Conditions: BODIPY lipid droplet fluorescence, 18-24 h; for cell number change: measured here: cell count max response, cells fed with added oleic acid. Put shortly:
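Laser-scanning cytometry quantifies lipid droplet accumulation (500–530 nm total intensity; droplet/cell object ratio) in oleic acid-fed (400 uM added) Drosophila S3 cells treated with a concentration series. 20 uM Triacsin C defined 100% inhibition.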

The mark [1] stands for this setting: measured here: cell number channel AC50, cells fed with added oleic acid.
Where [2] appears, read: measured here: lipid fluorescence (Fed channel) AC50, cells fed with added oleic acid.

For `CC(NC(=O)OCc1ccccc1)C(=O)N1CC(O)CC1C(=O)O` (configuration not stated), the cell number change is -155%. For the same molecule, the AC50 under setting [1] is 4.11 µM [falling, full curve]. Also, the AC50 under setting [2] was 29.1 µM [falling, single point].
As to `CC(C)N(C(=O)COC(=O)c1ccc([N+](=O)[O-])cc1)c1ccccc1`, the AC50 under setting [2] was 6.51 µM [rising, single point].
With `O=C(COC(=O)c1cnccn1)c1ccc(Br)cc1`, the cell number change was 3.23%. Besides, the AC50 under setting [2] is 0.82 µM [falling, full curve, poor fit].
On to `COc1cc(SC)ccc1C(=O)Nc1cc(C)ccn1`, for which the cell number change is -55.6%. Further, under setting [1], the AC50 is 1.64 µM [falling, partial curve]. Besides, under setting [2], the AC50 is 20.6 µM [falling, single point].
Consider `Cc1ccc(NC(=O)CN(C)CC(=O)NC2CCCc3ccccc32)cc1` (configuration not stated), for which the cell number change worked out at 7.01%. Further, under setting [2], the AC50 is 18.4 µM [rising, single point].
For `CSc1cccc(NC(=S)N2CCC(N(C)C(C)C)CC2)c1`, the AC50 under setting [2] was 0.326 µM [falling, partial curve].
In the case of `COc1ccccc1N1C(=O)c2ccc(C(=O)Nc3ccc(F)cc3)cc2C1=O`, the cell number change came out at 10.8%. Moreover, under setting [2], the AC50 was 6.51 µM [rising, single point].
As to `Cc1ccc(NC(=O)CN(C)C(=O)CCSc2ccc(F)cc2)cc1`, the cell number change is -19.7%. The concentration at half-maximal activity (AC50) under setting [2] is 0.00411 µM [falling, full curve, poor fit].
For `Cc1csc2c(N3CCN(C(=S)Nc4ccc(F)cc4F)CC3)ncnc12`, the cell number change is -3.12%. Also, the concentration at half-maximal activity (AC50) under setting [1] is 0.184 µM [rising, full curve].
With `COc1ccccc1NC(=O)Nc1cc(NC(=O)Nc2ccccc2OC)c(C)nc1C`, the cell number change is -52.5%. Moreover, the AC50 under setting [1] was 32.6 µM [falling, single point]. Under setting [2], the AC50 is 14.6 µM [falling, partial curve, poor fit].
For the molecule `O=C(NNS(=O)(=O)c1ccc(CCCl)cc1)C(O)(c1ccccc1)c1ccccc1`, the cell number change stood at 21.1%. Under setting [2], the AC50 was 0.0231 µM [rising, full curve, poor fit].
Turning to `CS(=O)(=O)N1CCC(C(=O)Nc2ccc3c(c2)OCCO3)CC1`, the cell number change was 8.44%. Moreover, the AC50 under setting [2] was 29.1 µM [falling, single point].
`CC(C)(C)NC(=O)C1CCC(CNS(=O)(=O)c2cccc3nsnc23)CC1` (configuration not stated): the AC50 under setting [2] is 6.51 µM [falling, single point].
As for `Nc1nnc(SCc2ccccc2F)n1-c1ccccc1`, the cell number change worked out at 15.8%.
Turning to `COc1ccc(OC)c(NC(=O)c2oc3ccccc3c2NC(=O)C2CC2)c1`, the cell number change came to 5.82%. Moreover, under setting [2], the AC50 was 0.259 µM [rising, full curve, poor fit].
In the case of `O=C(O)CC12CSc3[nH]c(=O)sc3C1c1ccccc1OC2=O` (configuration not stated), the cell number change is -8.37%. Under setting [1], the AC50 is 0.0291 µM [falling, full curve, poor fit]. The AC50 under setting [2] was 3.66 µM [falling, single point].
As to `Cc1csc2c(N3CCN(C(=O)c4ccc(C(C)(C)C)cc4)CC3)ncnc12`, the cell number change was -65.7%. For the same molecule, the AC50 under setting [1] was 18.4 µM [falling, partial curve]. Under setting [2], the AC50 was 20.6 µM [falling, partial curve].
As for `Cc1ccc(-c2csc3ncnc(SCC(=O)NCC4CCCO4)c23)cc1` (configuration not stated), the cell number change was -9.09%. Also, the AC50 under setting [2] was 0.651 µM [falling, single point].
For `CC1CCN(S(=O)(=O)c2ccc3c(c2)N(CC(=O)NCCCN2CCCCC2)C(=O)CS3)CC1`, under setting [1], the AC50 was 0.058 µM [rising, full curve].
Consider `CNc1oc(-c2cccs2)nc1S(=O)(=O)c1ccccc1`, for which the cell number change stood at 118%.
For `COc1ccc(/C=C/C(=O)NC(=S)Nc2ccc(S(=O)(=O)N=C(N)N)cc2)cc1OC`, the cell number change worked out at 17.6%. Under setting [1], the AC50 is 5.17 µM [rising, partial curve, poor fit]. Under setting [2], the AC50 is 6.51 µM [rising, single point].
`O=C(/C=C/c1ccc(Cl)c([N+](=O)[O-])c1)c1ccc(O)cc1`: the cell number change is -41.8%. Also, under setting [1], the AC50 is 29.1 µM [falling, single point]. In addition, the AC50 under setting [2] is 29.1 µM [falling, single point].
On to `c1ccc(OCCn2cnc3ccccc32)cc1`, for which the cell number change was 63.1%. In addition, the AC50 under setting [1] was 18.4 µM [rising, single point]. Also, the AC50 under setting [2] was 16.4 µM [rising, single point].
For the molecule `O=C(CSc1nc2[nH]c(=O)cc(O)c2s1)Nc1ccc(Br)cc1`, the cell number change is -24.8%. Also, the AC50 under setting [2] was 0.731 µM [rising, single point].
Take `CCOc1ccc(CCNC(=O)CCCn2nc(C)c3c(C)n(-c4ccccc4)nc3c2=O)cc1`: the cell number change is -7.79%. Besides, under setting [1], the concentration at half-maximal activity (AC50) was 1.84 µM [rising, partial curve]. Besides, under setting [2], the AC50 was 3.26 µM [rising, partial curve].
In the case of `O=C(CSc1nnc(CNC(=O)c2cccc(C(F)(F)F)c2)o1)NCc1ccco1`, the cell number change was -20.8%.
On to `C[C@@H]1C(=O)O[C@H]2[C@H]1CC[C@@]1(C)C(=O)C=C[C@@](C)(O)[C@H]21`, for which the cell number change was -15.6%. Moreover, under setting [1], the AC50 is 2.59 µM [falling, partial curve, poor fit].
Take `CNC(=S)N(CCc1c(C)[nH]c2ccc(C)cc12)Cc1ccc(OC)c(OC)c1`: the cell number change was 11.7%. Also, under setting [2], the AC50 was 0.411 µM [rising, full curve].
`COc1ccccc1CCC(=O)Oc1ccccc1C#N`: the cell number change amounted to 2.7%.
On to `COc1ccc(CN(C)CC(=O)Nc2ccccc2C(F)(F)F)c(OC)c1`, for which the cell number change was -24.3%. For the same molecule, the AC50 under setting [1] was 0.82 µM [rising, full curve]. Moreover, the AC50 under setting [2] was 18.4 µM [rising, partial curve].
For the molecule `O=C1c2ccccc2C(=O)N1CCn1nc(Cl)nc1Cl`, the cell number change was determined as 24%. For the same molecule, the AC50 under setting [2] is 1.03 µM [rising, full curve].
As for `Nc1ccc(-c2n[nH]c(=O)c3ccccc23)cc1N`, the cell number change came to 0.219%. Moreover, under setting [2], the AC50 was 8.2 µM [rising, partial curve].
`Cc1nn(-c2cccc(Cl)c2)c(Cl)c1/C=N/NC(=O)c1cccnc1`: the cell number change was -34.1%. In addition, the AC50 under setting [1] is 32.6 µM [falling, single point].
For `Cc1onc(-c2c(Cl)cccc2Cl)c1C(N)=S`, the cell number change was -21.1%. Also, under setting [2], the AC50 is 6.51 µM [rising, single point].
Regarding `Cc1cc(C)c(C)c(S(=O)(=O)N2CCN(C(=O)c3ccccn3)CC2)c1C`, the cell number change turned out to be 23.4%. Also, under setting [2], the AC50 was 25.9 µM [rising, single point].
Turning to `NCC(c1ccccc1)c1c[nH]c2ccccc12` (configuration not stated), the cell number change is -33.1%. In addition, the AC50 under setting [2] is 10 µM [rising, partial curve, poor fit].
`CCOc1ccc2nc(N(CCN(C)C)C(=O)c3cc4ccccc4cc3OC)sc2c1`: the cell number change worked out at 73.3%. Further, under setting [1], the concentration at half-maximal activity (AC50) is 11.6 µM [rising, partial curve, poor fit]. Also, under setting [2], the AC50 is 1.46 µM [rising, partial curve].
Consider `COc1cc(CNC2CCCC2)c(Br)cc1OCc1ccccc1`, for which the cell number change was found to be 119%. In addition, under setting [1], the AC50 was 8.2 µM [rising, partial curve].
In the case of `CCOC(=O)[C@H]1[C@H]2COc3ccc(Cl)cc3[C@@H]2N2C(=O)c3ccc(Cl)cc3NC(=O)[C@@]12C`, the cell number change is 0.984%. Also, the concentration at half-maximal activity (AC50) under setting [2] is 32.6 µM [falling, single point].
As to `Nc1ncnc(Sc2ccc(Cl)cc2)c1[N+](=O)[O-]`, the AC50 was 0.58 µM [falling, partial curve] under setting [1] and 2.06 µM [falling, partial curve] under setting [2].
`CC(=O)N1N=C(N)SC12CCCC2`: the cell number change was -23.1%. Besides, under setting [2], the AC50 is 0.92 µM [falling, full curve, poor fit].
As for `O=C(NCCC(=O)N1CCN(S(=O)(=O)c2ccc(Cl)cc2)CC1)Nc1ccccc1`, the cell number change is 78.5%. Also, the AC50 under setting [1] is 20.6 µM [rising, single point].
In the case of `Cc1onc(-c2ccccc2Cl)c1C(=O)OCc1cnc(Cl)s1`, the cell number change came out at 21.4%. In addition, under setting [1], the AC50 is 0.411 µM [rising, single point].
Consider `CCn1c(CCNS(=O)(=O)c2ccccc2Br)nnc1SC`, for which the cell number change is -6.25%. Also, the AC50 under setting [2] is 0.116 µM [rising, single point].
`Cc1cccc(NC(=O)C2CCN(S(=O)(=O)c3ccc4c(c3)OCCCO4)CC2)n1`: the cell number change worked out at 58.6%. For the same molecule, the AC50 under setting [1] is 14.6 µM [rising, partial curve, poor fit].
On to `CC(C)c1ccc(OCc2ccc(C(=O)N3CCN(c4ccccn4)CC3)cc2)cc1`, for which the cell number change was determined as 4.32%.
For the molecule `O=C(CN1C(=O)CCSc2ccccc21)Nc1ccc2c(c1)OCCO2`, the cell number change amounted to 12%. For the same molecule, the AC50 under setting [2] is 0.82 µM [rising, full curve, poor fit].
As to `CCCCNC(=O)[C@H](Cc1c[nH]c2ccccc12)NC(=O)c1ccccc1Cl`, the cell number change is 7.29%.
Take `Cc1cc(OCC(=O)N2CCN(c3ccccc3)CC2)c2c(C)c(C)c(=O)oc2c1`: the cell number change amounted to 8.73%.
`O=C1c2cccc3cccc(c23)C(=O)N1Cc1ccccc1`: the cell number change was -5.21%. Besides, the AC50 under setting [2] was 14.6 µM [falling, partial curve].
For `CCOCCSc1n[nH]c(=O)n1CCc1ccccc1`, the cell number change was -3.97%. Besides, the AC50 under setting [2] was 0.651 µM [rising, single point].
Turning to `COCCn1c(C(C)C)nc2ccccc21`, the cell number change is -16.1%. Under setting [2], the AC50 was 0.82 µM [falling, full curve, poor fit].
With `O=C1CCCC2=C1C1O[C@](c3ccsc3)(Cc3c1ccc1ccccc31)O2`, the cell number change was determined as 11.3%.
Consider `COc1ccc2cc(CN(CCCN3CCOCC3)Cc3nnnn3C3CCCC3)c(=O)[nH]c2c1`, for which the cell number change was -36.2%. The AC50 under setting [1] is 32.6 µM [falling, single point]. Under setting [2], the AC50 is 4.11 µM [falling, full curve, poor fit].
Turning to `COc1cccc(S(=O)(=O)NCc2ccc(C(=O)Nc3ccc(Cl)c(Cl)c3)cc2)c1`, the cell number change is 44.9%. Besides, the AC50 under setting [1] was 32.6 µM [rising, single point].
On to `CCCC(CCC(=O)NC1CCCCC1)C(=O)O` (configuration not stated), for which the cell number change is -10.7%. Besides, the AC50 under setting [2] was 0.651 µM [falling, single point].
Take `Cc1cc(C)c(NC(=O)CNC(=O)Cc2sc(C)nc2-c2ccc(F)cc2)c(C)c1`: the AC50 runs as follows: under setting [1], 0.13 µM [rising, partial curve]; under setting [2], 0.116 µM [rising, full curve].
As for `CCCc1oc(C(=O)O)cc1CN`, the cell number change was -38%. The AC50 under setting [1] is 3.26 µM [falling, full curve]. Also, the AC50 under setting [2] was 4.11 µM [rising, single point].
